Reference: the supplement of paper PMC12024529
Counter-ions that a name gives are not always drawn. The list shows a part of the results. Plates or batches differ in their baseline, so values are only roughly comparable.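 HEK293 lines stably express B-domain-deleted factor VIII fused to Gaussia luciferase, wild type or a misfolding-prone missense mutant. Scores equal triplicate-well mean luminescence minus DMSO mean, divided by DMSO standard deviation; scores of 2 or higher are hits. Low scores may indicate reduced secretion or worse cell viability.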

Legend:
HEK293 WT BDD-FVIII-Gluc = test: secreted FVIII-Gluc luciferase Z-score vs DMSO control; higher = more FVIII-Gluc secretion; conditions: 5 µM; 24 h
[1] = test system: HEK293 p.N1941S BDD-FVIII-Gluc; test: as above; conditions: 5 µM; 24 h

SMILES | secreted FVIII-Gluc luciferase Z-score (HEK293 WT BDD-FVIII-Gluc) | secreted FVIII-Gluc luciferase Z-score [1]
C=CC(=O)N1CCC[C@@H](n2nc(-c3ccc(Oc4ccccc4)cc3)c3c(N)ncnc32)C1 | inactive: -6.78 | inactive: -1.06
C#C[C@]1(O)CC[C@H]2[C@@H]3CCC4=CC(=O)CC[C@@H]4[C@H]3CC[C@@]21C [norethindrone] | inactive: -0.693 | inactive: 0.825
COc1c2occc2cc2ccc(=O)oc12 [Methoxsalen (Oxsoralen)] | inactive: -2.34 | inactive: -0.794
CC1=NN(c2ccccc2)C(=O)C1 [Edaravone (MCI-186)] | inactive: -4.6 | inactive: -0.2
C[C@H]1[C@H](NC(=O)/C(=N\OC(C)(C)C(=O)O)c2csc(N)n2)C(=O)N1S(=O)(=O)O [Aztreonam (Azactam, Cayston)] | inactive: -4.3 | inactive: -0.307
NC12CC3CC(CC(C3)C1)C2 [Amantadine hydrochloride (Symmetrel)] | inactive: -0.19 | inactive: 0.502
CO[C@H]1O[C@@H]2O[C@@]3(C)CC[C@H]4[C@H](C)CC[C@@H]([C@H]1C)[C@@]24OO3 [Artemether (SM-224)] | inactive: -0.474 | inactive: -0.572
COCCc1ccc(OCC(O)CNC(C)C)cc1 (stereo unspecified) [Metoprolol tartrate] | inactive: -0.726 | inactive: -0.114
COC(=O)N/N=C/c1c[n+]([O-])c2ccccc2[n+]1[O-] [Carbadox] | inactive: -1.72 | inactive: 1.32
Cc1cccc(C)c1OCC(C)N (stereo unspecified) [Mexiletine HCl] | inactive: -1.45 | inactive: 0.726
CN1CCC(=C2c3ccccc3C=Cc3ccccc32)CC1 [Cyproheptadine HCl (Periactin)] | inactive: -2.23 | inactive: -3.93
CC[C@H]1OC(=O)[C@H](C)[C@@H](O[C@H]2C[C@@](C)(OC)[C@@H](O)[C@H](C)O2)[C@H](C)[C@@H](O[C@@H]2O[C@H](C)C[C@H](N(C)C)[C@H]2O)[C@](C)(O)C[C@@H](C)CN(C)[C@H](C)[C@@H](O)[C@]1(C)O [Azithromycin (Zithromax)] | inactive: -4.25 | inactive: -2.25
C[C@]12CC[C@@H]3c4ccc(O)cc4CC[C@H]3[C@@H]1CC[C@@H]2O [Estradiol] | inactive: -2.57 | inactive: 0.881
CCNC(=O)CCC/C=C\C[C@@H]1[C@@H](/C=C/[C@@H](O)CCc2ccccc2)[C@H](O)C[C@@H]1O [Bimatoprost] | inactive: -3.09 | inactive: -0.263
CCCCC(=O)O[C@H]1CC[C@H]2[C@@H]3CCc4cc(O)ccc4[C@H]3CC[C@]12C [Estradiol valerate] | inactive: -1.14 | inactive: -2.52
COc1cc2nccc(Oc3ccc(NC(=O)C4(C(=O)Nc5ccc(F)cc5)CC4)cc3)c2cc1OC [XL-184 (Cabozantinib)] | inactive: -4.31 | inactive: -11.5
CC1(C)S[C@@H]2[C@H](NC(=O)C(C(=O)O)c3ccccc3)C(=O)N2[C@H]1C(=O)O (stereo partly specified) [Carbenicillin disodium] | inactive: -0.446 | inactive: -1.84
CC(=O)NS(=O)(=O)c1ccc(N)cc1 [sulfacetamide sodium] | inactive: -1.63 | inactive: -0.351
CC(c1cc2ccccc2s1)N(O)C(N)=O (stereo unspecified) [Zileuton] | inactive: -3.58 | inactive: 0.0221
CN(C)/N=N/c1[nH]cnc1C(N)=O [Dacarbazine (DTIC-Dome)] | inactive: 0.83 | inactive: -2.5
CO/N=C(\C(=O)N[C@@H]1C(=O)N2C(C(=O)O)=C(CSC(=O)c3ccco3)CS[C@H]12)c1csc(N)n1 [Ceftiofur HCl] | inactive: -0.572 | inactive: -0.485
Nc1cccc2c1C(=O)N(C1CCC(=O)NC1=O)C2=O (stereo unspecified) [Pomalidomide] | inactive: -1.99 | inactive: -0.579
CC[C@H]1OC(=O)[C@H](C)[C@@H](O[C@H]2C[C@@](C)(OC)[C@@H](O)[C@H](C)O2)[C@H](C)[C@@H](O[C@@H]2O[C@H](C)C[C@H](N(C)C)[C@H]2O)[C@](C)(O)C[C@@H](C)/C(=N\OCOCCOC)[C@H](C)[C@@H](O)[C@]1(C)O [Roxithromycin (Roxl-150)] | inactive: -1.66 | inactive: -4.85

Arranged by number of heavy atoms (smallest number first): part of the list above
SMILES | secreted FVIII-Gluc luciferase Z-score (HEK293 WT BDD-FVIII-Gluc) | secreted FVIII-Gluc luciferase Z-score [1]
NC12CC3CC(CC(C3)C1)C2 [Amantadine hydrochloride (Symmetrel)] | inactive: -0.19 | inactive: 0.502
CN1CCC(=C2c3ccccc3C=Cc3ccccc32)CC1 [Cyproheptadine HCl (Periactin)] | inactive: -2.23 | inactive: -3.93
CC[C@H]1OC(=O)[C@H](C)[C@@H](O[C@H]2C[C@@](C)(OC)[C@@H](O)[C@H](C)O2)[C@H](C)[C@@H](O[C@@H]2O[C@H](C)C[C@H](N(C)C)[C@H]2O)[C@](C)(O)C[C@@H](C)/C(=N\OCOCCOC)[C@H](C)[C@@H](O)[C@]1(C)O [Roxithromycin (Roxl-150)] | inactive: -1.66 | inactive: -4.85
